Binding signal data for 54 sequences are collected here from publication PMC7819943, “Rice protein-binding microarrays: a tool to detect cis-acting elements near promoter regions in rice”.

The other results are listed elsewhere or left out.

The experiment deals with T1, OsSMF1 (Oryza sativa, UniProt Q6ZLB0 1-436).
T1 sequence: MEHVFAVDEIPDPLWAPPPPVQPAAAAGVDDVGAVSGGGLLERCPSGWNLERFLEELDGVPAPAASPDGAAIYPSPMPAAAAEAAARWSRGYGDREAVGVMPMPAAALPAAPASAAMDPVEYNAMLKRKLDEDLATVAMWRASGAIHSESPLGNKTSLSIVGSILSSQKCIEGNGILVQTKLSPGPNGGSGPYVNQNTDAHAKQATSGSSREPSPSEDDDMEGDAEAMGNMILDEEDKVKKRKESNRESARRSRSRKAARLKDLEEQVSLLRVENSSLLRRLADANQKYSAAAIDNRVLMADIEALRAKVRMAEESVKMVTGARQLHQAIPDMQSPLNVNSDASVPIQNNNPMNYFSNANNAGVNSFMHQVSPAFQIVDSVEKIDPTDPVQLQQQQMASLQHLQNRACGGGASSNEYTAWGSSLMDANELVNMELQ
Briefly: protein-binding microarray (RPBM); PBS, 2% BSA, 51.3 ng/ul salmon testes DNA, 50 uM zinc acetate, 200 nM TF, 25 C, 1 h; high values mean tight binding. The note with it: protein: recombinant; tags: N-terminal polyhistidine and DsRed monomer fusion (pET32a); chain copies: 2; label: CyDye5-dUTP incorporated in the synthesized complementary strand; 3' TTTTT single-stranded linker to array surface; dsDNA, one strand shown. Put shortly: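 Using Ni–NTA, transcription factors fused N-terminally to polyhistidine and DsRed were purified after expression in E. coli BL21-CodonPlus. These were incubated at 200 nM with a blocked, double-stranded custom Agilent array for 1 h at 25 °C in a buffer containing 50 µM zinc acetate, and the array was washed. The binding signal is per-feature fluorescence intensity (arbitrary units) on an Axon 4000B scanner.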
For the sequence “ATGCTCCCGCCGCCGCCTCCGCCGCAATCCGAGTCATCGGCGGAGTCACCTAGTGCAG”, the binding signal is 7570 fluorescence intensity (a.u.).

With “CATCGCTGTTAACCCAGCGACCAGCGTGGCAGAGCAAACTCGGAGTCACCTAGTGCAG”, the binding signal was 3250 fluorescence intensity (a.u.).

Take “CAATGCTAGCCGCGCAATCTGCGCGGGCCACCATGCTATTCGGAGTCACCTAGTGCAG”: the binding signal was 3430 fluorescence intensity (a.u.).

On to “AACCTAATTAAAGATGATGATTCACCGGCAATCATTGCAACGGAGTCACCTAGTGCAG”, for which the binding signal is 4040 fluorescence intensity (a.u.).

“CGTCTTGACATATGGGGCCACGCTGACTCACCCGCCACATCGGAGTCACCTAGTGCAG”: the binding signal was 11200 fluorescence intensity (a.u.).

As for “TGTCAAATCATGACGCAATTAGGCTCAGAAGATTCGTCTCCGGAGTCACCTAGTGCAG”, the binding signal was 4030 fluorescence intensity (a.u.).

For “AAGATTAAAGCATGCAGGAGGGCGCCTATTAAAATGGACGCGGAGTCACCTAGTGCAG”, the binding signal is 17400 fluorescence intensity (a.u.).

Consider “AGCACGGACATATTACTAGTTACATTAAATATTAGTCAAACGGAGTCACCTAGTGCAG”, for which the binding signal is 33800 fluorescence intensity (a.u.).

Regarding “ACAGGTGGGTGGATTGAGGATAAACTATTGGTTCCTACAGCGGAGTCACCTAGTGCAG”, the binding signal was 3390 fluorescence intensity (a.u.).

Turning to “GACAAACTCCAGGGCTTGATGTTCCATGTCAGCACGTTGGCGGAGTCACCTAGTGCAG”, the binding signal is 4040 fluorescence intensity (a.u.).

In the case of “ACACGCCACGCCGCCACCTCCACTTCGTTAACCCTTCTCCCGGAGTCACCTAGTGCAG”, the binding signal is 5410 fluorescence intensity (a.u.).

On to “AGTGGAGAGAGTACCTACCCCAAGACCCTGATAAATTGGTCGGAGTCACCTAGTGCAG”, for which the binding signal is 3160 fluorescence intensity (a.u.).

Consider “CACTACCGACCTAGACCGCCTTGGCTGCCACGAAACCCCTCGGAGTCACCTAGTGCAG”, for which the binding signal is 4096 fluorescence intensity (a.u.).

On to “CCCAAACCTTATCTCCTGGAGTAGTCACCTCCACGAACCCCGGAGTCACCTAGTGCAG”, for which the binding signal is 3190 fluorescence intensity (a.u.).

Regarding “ATTCAGTACGATTAATTTATTCTGGACGGAGGGAGGGAGTCGGAGTCACCTAGTGCAG”, the binding signal was 3400 fluorescence intensity (a.u.).

With “TGATTACTAGTACTCCCACGTGGCCACGTCCTACCCCATCCGGAGTCACCTAGTGCAG”, the binding signal is 14800 fluorescence intensity (a.u.).

In the case of “ATATATATATATATATATATATATATATATATATATATATCGGAGTCACCTAGTGCAG”, the binding signal is 3370 fluorescence intensity (a.u.).

On to “TATTTGTGAGAGTGTGAACGGTTGTGACTACCCTCAGTCCCGGAGTCACCTAGTGCAG”, for which the binding signal is 3880 fluorescence intensity (a.u.).

Regarding “ATCCAGTATATAAACATCCGATGTGACGTGGACTAAAGTTCGGAGTCACCTAGTGCAG”, the binding signal is 19000 fluorescence intensity (a.u.).

With “CCGCCGCCGCCCGATCGCCGCGTCCTCCGCTCCGCACCCTCGGAGTCACCTAGTGCAG”, the binding signal is 3490 fluorescence intensity (a.u.).

On to “CCTGTGTAAATTCCTTGTGAATTCTTGTGTAAAATTCTGACGGAGTCACCTAGTGCAG”, for which the binding signal is 16600 fluorescence intensity (a.u.).

Turning to “AGGAGGAGCGGTGCGACAACTGATGTGGCAGCTCCTCGACCGGAGTCACCTAGTGCAG”, the binding signal is 6750 fluorescence intensity (a.u.).

For “TGCGACCACGCGGCGATCCAACGGCCACGGAGACGCTCCTCGGAGTCACCTAGTGCAG”, the binding signal is 4040 fluorescence intensity (a.u.).

In the case of “TGATTGTAAAAGTAAAATCTAGCCTACGTATTGCAAGATTCGGAGTCACCTAGTGCAG”, the binding signal is 3260 fluorescence intensity (a.u.).

On to “TTTTCTATAAATTTAGTCAAATATAACAAAGTTTGATTAGCGGAGTCACCTAGTGCAG”, for which the binding signal was 42600 fluorescence intensity (a.u.).

For the sequence “AGTCCACAAAGGCATCATCGCATACGTGGGTTGCCGAATACGGAGTCACCTAGTGCAG”, the binding signal is 4400 fluorescence intensity (a.u.).

In the case of “AACCACACGGATCGACGTGACTGTTGCTCCGCTTGAGATACGGAGTCACCTAGTGCAG”, the binding signal is 3740 fluorescence intensity (a.u.).

“GTTGTATATATATTTTAATGAATGTGAAACACGGTGATGGCGGAGTCACCTAGTGCAG”: the binding signal is 31100 fluorescence intensity (a.u.).

As for “ACCGCTCGATATCCAGCTAGCTGACTAGGTGTGCTCTACCCGGAGTCACCTAGTGCAG”, the binding signal is 4630 fluorescence intensity (a.u.).

As to “ATCAGCCCCGCCTTCGCCACGCACCACGTCTGCCCGCCCGCGGAGTCACCTAGTGCAG”, the binding signal is 6470 fluorescence intensity (a.u.).

“TCCCGCGTCGTCTTCGCCGCCGCCACCGCCGCCACGTCGCCGGAGTCACCTAGTGCAG”: the binding signal was 10800 fluorescence intensity (a.u.).

For the sequence “TCCTCCATGATTACAGTCGACCAGGTGATTGGACGGTGCGCGGAGTCACCTAGTGCAG”, the binding signal is 3490 fluorescence intensity (a.u.).

For “CTTCCCGCCGCCGCCACTGCCACGAACAGTTCGCTCACCGCGGAGTCACCTAGTGCAG”, the binding signal is 3200 fluorescence intensity (a.u.).

Regarding “CCTCCCTCTATGGCCACGCCACCGCCGCTGCCCCTCCTCTCGGAGTCACCTAGTGCAG”, the binding signal was 3710 fluorescence intensity (a.u.).

Consider “CAGGAATTTCCACGTCAATGCCGGAATAAATCGGCAGGGTCGGAGTCACCTAGTGCAG”, for which the binding signal is 10300 fluorescence intensity (a.u.).

For the sequence “TGGTAACTAAACTGCCATGTCAGGGACAGATCGACCAGTGCGGAGTCACCTAGTGCAG”, the binding signal is 5160 fluorescence intensity (a.u.).

“CAAGCAATGATTGGATTGGATGCTGACGATGAAACGAACCCGGAGTCACCTAGTGCAG”: the binding signal was 3380 fluorescence intensity (a.u.).

As for “CGCCGCCTCGCCCACCGCGCACTCGTCCAGGGCGGCTCCACGGAGTCACCTAGTGCAG”, the binding signal was 3450 fluorescence intensity (a.u.).

Regarding “GTGGATGTGACACGTGGCGGATCATGGTTGGTCCGTGATTCGGAGTCACCTAGTGCAG”, the binding signal was 19100 fluorescence intensity (a.u.).

Take “TTCGTGGATGGGGTGGGCTCTTTCTCACTGTTATATTGTCCGGAGTCACCTAGTGCAG”: the binding signal is 3950 fluorescence intensity (a.u.).

Consider “CCACGGATTTAGATAACACGTCACGAGATATACACCCATACGGAGTCACCTAGTGCAG”, for which the binding signal is 14600 fluorescence intensity (a.u.).

On to “CGAGTTTAGGGACCGCGATGACACAGCGGTACAAGTTTGTCGGAGTCACCTAGTGCAG”, for which the binding signal was 3510 fluorescence intensity (a.u.).

Regarding “AGAGAGAGGTGATGACATGGCTTACTGACATGTGGGGCCCCGGAGTCACCTAGTGCAG”, the binding signal is 8410 fluorescence intensity (a.u.).

In the case of “CTGCCGCCACCTCGTCACCGCCCGACCAATCCGCCGCCGCCGGAGTCACCTAGTGCAG”, the binding signal is 4340 fluorescence intensity (a.u.).

As to “AATTTAAGTGTATACGTGGCCACCTTAATTACATGGTGGCCGGAGTCACCTAGTGCAG”, the binding signal is 8130 fluorescence intensity (a.u.).

In the case of “CGTCCACGTCCATCTCCGCCGCTGACAGCACCAGCTCTTCCGGAGTCACCTAGTGCAG”, the binding signal was 5020 fluorescence intensity (a.u.).

Turning to “CTTCCATCCAACTCTACCTAGCTAGCTTAGCTAGCTCTTACGGAGTCACCTAGTGCAG”, the binding signal was 3540 fluorescence intensity (a.u.).

Take “GTTGGGGAGCTTAGCTCGCGCGCGGCGCGGTGGATCGCATCGGAGTCACCTAGTGCAG”: the binding signal was 4260 fluorescence intensity (a.u.).

In the case of “ACACGGATCGAACCCCTCCTCCCCGCCACGTCACCGATCCCGGAGTCACCTAGTGCAG”, the binding signal was 38700 fluorescence intensity (a.u.).

In the case of “GTCCACGCCCCGTCTCCACGGTCGACGCGGATCAATTCCCCGGAGTCACCTAGTGCAG”, the binding signal is 3220 fluorescence intensity (a.u.).

As to “AATTCCGGCCCAATAGTCACTTGTGTTGGCCACTTCGCCTCGGAGTCACCTAGTGCAG”, the binding signal is 3350 fluorescence intensity (a.u.).

On to “TCGGGAAAATGGTGCCATGTGTCACTTCGTTATAGCTGATCGGAGTCACCTAGTGCAG”, for which the binding signal was 3290 fluorescence intensity (a.u.).

In the case of “AGGAGGAGGAGGAGAACCACAAGACCAAAACCAACCATGGCGGAGTCACCTAGTGCAG”, the binding signal is 3620 fluorescence intensity (a.u.).

For the sequence “TTACTTTTGTACGCTGTGTTATCACTGCACGTAATAATTACGGAGTCACCTAGTGCAG”, the binding signal was 3210 fluorescence intensity (a.u.).
